PubChem BioAssay AID1259308 | NCATS – 2017
Purpose: 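Knock-downs that increase output of a recombinant reporter protein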 (primary screen). Cells: human HEK293 embryonic kidney cells stably expressing firefly luciferase (HEK-CMV-Luc2-Hygro). Knock-down reagent: single siRNA against human genes, 0.8 pmol siRNA per well. Time to read-out: 72 h. Measured: 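Luciferase light (ONE-Glo) measured on one replicate plate set and viability (CellTiter-Glo) on the other, scaled to a negative control siRNA, with robust z-scores and luciferase per cell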. Direction: total luciferase, z-score: higher = more reporter protein produced. Rule for the call: 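Active when the median/MAD z-score for overall luciferase is greater than 3; a gene was taken forward for validation with new siRNAs if at least two of its three siRNAs passed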. Meaning of the calls: active = raised luciferase; inactive = no rise.
This is one part, drawn at random, of about 59,000 deposited reagents. Over the whole deposit, about 1,510 (2.6%) were called active. 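Calls use total luciferase alone and ignore viability, so some active siRNAs may act by altering cell number.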 Reagents against one gene are numbered here. Not all columns of the deposit are shown.

total luciferase, z-score, by target gene and reagent
VCP: #1 0.68 inactive; #2 0.375 inactive; #3 -0.602 inactive
CHORDC1: #1 0.568 inactive; #2 -0.24 inactive; #3 -0.547 inactive
ZBTB44: #1 0.401 inactive; #2 1.06 inactive; #3 -0.615 inactive
NLRP1: #1 0.793 inactive; #2 0.0241 inactive; #3 -0.489 inactive
AP4B1: #1 -0.386 inactive; #2 0.49 inactive; #3 1.58 inactive
SCGB1B2P: #1 -0.0206 inactive; #2 0.262 inactive; #3 -0.167 inactive
SPACA1: #1 0.358 inactive; #2 -0.885 inactive; #3 0.702 inactive
VGLL1: #1 -0.877 inactive; #2 -0.145 inactive; #3 -0.549 inactive
LRRC3: #1 0.708 inactive; #2 -0.322 inactive; #3 1.13 inactive
RNF113A: #1 0.287 inactive; #2 1.25 inactive; #3 -0.892 inactive
TRIM27: #1 -2.16 inactive; #2 1.06 inactive; #3 -0.637 inactive
REN: #1 -1.04 inactive; #2 -0.665 inactive; #3 0.212 inactive
ITPRID1: #1 0.0489 inactive; #2 0.934 inactive; #3 1.39 inactive
PRRG3: #1 1.14 inactive; #2 0.0645 inactive; #3 0.295 inactive
LCTL: #1 -0.768 inactive; #2 -0.261 inactive; #3 1.68 inactive
ARHGAP12: #1 0.907 inactive; #2 -0.375 inactive; #3 0.306 inactive
FCER2: #1 1.52 inactive; #2 1.93 inactive; #3 -0.0177 inactive
SRARP: #1 0.153 inactive; #2 0.327 inactive; #3 -0.345 inactive
SLC4A5: #1 0.605 inactive; #2 1.15 inactive; #3 0.704 inactive
